## Results of single-concentration screens

Source: ChEMBL document CHEMBL3988442, “University of Dundee, Small-Polar-MMV Screening Library” (2021).

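Assay of Toxoplasma gondii numbers, read through their beta-galactosidase reporter with a colour substrate. Tested at 10 µM. Higher reads as fewer parasites (inferred from which compounds were picked for retests). Size under these conditions: about 67,000 compounds, about 260 of them at 50% or above in at least one test.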

Each number is a percent effect as filed.
The record does not define 0% and 100%; most values in the screen are far below 50% and negative numbers occur (in some assays of this library far below -100).
This is an unselected part of the compounds tested.

structure,Percent Effect
CN(C)CCN1CCN(Cc2cccc(C#N)c2)Cc2cccnc21.O=C(O)C(F)(F)F.O=C(O)C(F)(F)F.O=C(O)C(F)(F)F,10.77%
CN1CCN(CCCN(C)S(=O)(=O)C2CCCCC2)CC1,3.792%
COCCN(C/C=C/c1ccccc1)Cc1ccccn1,10.2%
c1cnn(CCN2CCOC(Cn3cccn3)C2)c1 (stereo unspecified),8.514%
COCCNc1nc2c(c(NCC3CCOC3)n1)CCNCC2 (stereo unspecified),21.49%
COc1ccc(C(=O)Nc2c(C)nc3cccc(C)n3c2=O)cc1,-17.49%
CC(C)CCN(CCC(C)C)Cc1nc2c(cnn2C)c(=O)[nH]1,11.03%
Cn1cc(N)c(-c2nnc3n2CCCC3)n1,-8.891%
Cn1cc(CN2CC(C(=O)Nc3ccccc3)C3(CCOCC3)C2)cn1.O=C(O)C(F)(F)F (stereo unspecified),-1.627%
CCc1cccc(NC(=O)CNc2ccccc2OCCC(=O)OC)c1,2.835%
CCc1n[nH]c(C2CN(C(=O)c3ccnc(N(C)C)c3)CCO2)n1 (stereo unspecified),21.24%
CC(C)c1nc2c(n1C)CCN(Cc1nc(-c3ccsc3)no1)C2,8.831%
CN(C)CC(=O)N1CC2(CCN(C(=O)Nc3ccccc3)C2)C1.O=C(O)C(F)(F)F,-16.9%
Cl.Cn1ccnc1CNC(=O)c1cnc(C2CCNCC2)cn1,2.847%
COc1ccc(CN2CCN(C(=O)c3ccc(C)n3C)CC2)cc1,-4.781%
O=c1c2cccnc2cnn1CC(O)c1ccc(F)c(F)c1 (stereo unspecified),7.814%
CC(=O)N(Cc1noc(C)n1)C1CCN(Cc2cccc(C#N)c2)C1 (stereo unspecified),-24.34%
O=C(O)C(F)(F)F.[H][C@@]12COC[C@]1([H])[C@H](NC(=O)c1cscn1)CN2c1ncc(CC)cn1,-4.906%
O=C(O)C(F)(F)F.[H][C@@]12CCN(C(=O)c3ccco3)C[C@]1([H])[C@@H](CN(C)C)OC2,2.605%
Cc1ncc2c(n1)C1(CCN(C(=O)C(C)C)CC1)OCC2.Cl,12.51%
CCC1(C(=O)O)CCCN(C(=O)c2ccc(N3CCN(C)CC3)cc2)C1 (stereo unspecified),-4.327%
[H][C@]12CN(C(=O)c3cnc(C)nc3)CC[C@@]1(O)CCN(C(=O)N(C)C)C2,-14.55%
[H][C@]12CN(c3ccccn3)CCN1C[C@H](c1ccccc1)[C@H]2CO,2.946%
O=C(NCc1cccc(-n2cncn2)c1)NCC(C1CC1)C1CC1,-8.406%
CC(C)S(=O)(=O)N1CCC(c2[nH]ncc2S(C)(=O)=O)C1 (stereo unspecified),-3.607%
CC(NCc1ccc(C(C)(C)C)cc1)c1ccc(S(C)(=O)=O)cc1 (stereo unspecified),-15.97%
CCC(NC(=O)CC(F)(F)F)c1ccccc1OCC(=O)N1CCCC1 (stereo unspecified),-5.639%
N#Cc1ccccc1N1CC2(CCCCN2CC2CC2)CC1=O.O=C(O)C(F)(F)F (stereo unspecified),-2.651%
Cc1cnc2c(S(=O)(=O)N(C)C3CCS(=O)(=O)C3)cccc2c1 (stereo unspecified),-11.09%
CC(C)N1CCCC(C(=O)N2CCN(c3nsc4ccccc34)CC2)C1 (stereo unspecified),-0.4813%
CCn1nc(C)c2nc(C(C)C)nc(NCC(C)O)c21 (stereo unspecified),75.76%
NCC(=O)N1CCC(c2cccc(Oc3ccccc3)n2)CC1,14.6%
Cc1nc(-c2noc3ccc(C(=O)NCCN4CCOCC4)cc23)cs1,-2.715%
Cc1cc(CN(Cc2ccccc2)C2CC2)on1,19.77%
CC(C)c1nnc2n1CCN(Cc1cccc3c1OCCO3)C2,4.945%
CCn1cc(CN2CCCN(C3Cc4ccccc4C3)CC2)cn1,0.3937%
CN1CCN(C(=O)N2CCC3(CCCN(C4CCOCC4)C3=O)C2)CC1 (stereo unspecified),-3.727%
CSCC(C)(O)CNC(=O)c1cc(Cl)ccc1Cl (stereo unspecified),-6.018%
COc1ccc(Cc2ncc3c(n2)CN(C(=O)CN(C)C)C3)cc1,3.516%
CNS(=O)(=O)c1ccc(CNC(=O)N(C)CC(O)COC)cc1 (stereo unspecified),0.1619%
Cc1ccc(C)c(-n2nnnc2SCN2CCCCC2=O)c1,6.152%
CCNC(=O)N(C)C(c1cccnc1)C(C)C (stereo unspecified),-12.11%
O=C(c1ccoc1)N1CCN(Cc2ccccc2F)CC1,6.279%
CN(C(=O)c1ccc(Cl)cc1)C1CCN(c2ccccn2)CC1,14.04%
CSc1ncc(CNCC2(N3CCCCC3)Cc3ccccc3C2)cn1,-11.89%
CNC(=O)C1CCN(C(=O)c2ccn(-c3ccc(F)cc3)n2)CC1,7.431%
CN1CCCC(N(C)S(=O)(=O)c2cccc3ncccc23)C1 (stereo unspecified),27.79%
O=C(O)C(F)(F)F.[H][C@@]12CCN(CCOC)C[C@]1([H])[C@H](C(=O)N1CCCO1)CCO2,-12.46%
CN(C)S(=O)(=O)N1CCN(C(=O)c2ccc3ccn(C)c3c2)CC1,-0.3064%
COc1cccc(C(C(=O)O)N2CCSCC2)c1F (stereo unspecified),6.938%

Some entries from above, unchanged:

Result for COc1ccc(CN2CCN(C(=O)c3ccc(C)n3C)CC2)cc1 was -4.781%.
Result for O=C(c1ccoc1)N1CCN(Cc2ccccc2F)CC1 was 6.279%.
Result for CSCC(C)(O)CNC(=O)c1cc(Cl)ccc1Cl (stereo unspecified) was -6.018%.
Result for CCNC(=O)N(C)C(c1cccnc1)C(C)C (stereo unspecified) was -12.11%.